Data from paper PMC10766976.
No constants are given. Whether binding was seen depends on the method and setting. Binding seen in cells or lysates may run through a third protein. Here binding means that the protein was enriched with, or labelled near, the bait; the list need not be complete.

Chains of the proteins cited; added tags and fusions are not shown. Lines headed by an entry give the natural chain unless they say otherwise; changes in a name come on top.
UniProt P37231: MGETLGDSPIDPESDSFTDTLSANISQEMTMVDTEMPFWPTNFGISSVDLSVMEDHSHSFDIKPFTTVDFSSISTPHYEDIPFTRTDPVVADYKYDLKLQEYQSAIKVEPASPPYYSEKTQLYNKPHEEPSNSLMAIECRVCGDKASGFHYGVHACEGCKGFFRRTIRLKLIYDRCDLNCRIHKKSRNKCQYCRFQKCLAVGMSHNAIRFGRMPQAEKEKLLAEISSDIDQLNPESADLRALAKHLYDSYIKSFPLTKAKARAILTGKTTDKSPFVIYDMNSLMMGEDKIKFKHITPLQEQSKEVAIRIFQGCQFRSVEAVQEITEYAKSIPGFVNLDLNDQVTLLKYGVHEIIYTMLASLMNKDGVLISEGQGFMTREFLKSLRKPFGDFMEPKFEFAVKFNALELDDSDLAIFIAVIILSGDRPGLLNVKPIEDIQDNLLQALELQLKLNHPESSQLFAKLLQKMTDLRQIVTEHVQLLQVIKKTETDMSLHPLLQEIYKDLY
UniProt Q9H5C8: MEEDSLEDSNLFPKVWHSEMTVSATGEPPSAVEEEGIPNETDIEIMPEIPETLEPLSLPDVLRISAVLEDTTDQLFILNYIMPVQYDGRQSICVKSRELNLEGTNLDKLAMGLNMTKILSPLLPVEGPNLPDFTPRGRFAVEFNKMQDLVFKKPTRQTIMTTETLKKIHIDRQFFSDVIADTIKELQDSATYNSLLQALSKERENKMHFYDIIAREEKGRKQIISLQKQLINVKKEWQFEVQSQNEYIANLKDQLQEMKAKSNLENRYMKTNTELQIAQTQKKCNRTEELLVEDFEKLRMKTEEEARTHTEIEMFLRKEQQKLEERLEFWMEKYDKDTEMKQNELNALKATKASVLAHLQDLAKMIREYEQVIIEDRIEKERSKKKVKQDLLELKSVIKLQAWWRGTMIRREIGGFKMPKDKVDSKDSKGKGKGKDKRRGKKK
UniProt P13645: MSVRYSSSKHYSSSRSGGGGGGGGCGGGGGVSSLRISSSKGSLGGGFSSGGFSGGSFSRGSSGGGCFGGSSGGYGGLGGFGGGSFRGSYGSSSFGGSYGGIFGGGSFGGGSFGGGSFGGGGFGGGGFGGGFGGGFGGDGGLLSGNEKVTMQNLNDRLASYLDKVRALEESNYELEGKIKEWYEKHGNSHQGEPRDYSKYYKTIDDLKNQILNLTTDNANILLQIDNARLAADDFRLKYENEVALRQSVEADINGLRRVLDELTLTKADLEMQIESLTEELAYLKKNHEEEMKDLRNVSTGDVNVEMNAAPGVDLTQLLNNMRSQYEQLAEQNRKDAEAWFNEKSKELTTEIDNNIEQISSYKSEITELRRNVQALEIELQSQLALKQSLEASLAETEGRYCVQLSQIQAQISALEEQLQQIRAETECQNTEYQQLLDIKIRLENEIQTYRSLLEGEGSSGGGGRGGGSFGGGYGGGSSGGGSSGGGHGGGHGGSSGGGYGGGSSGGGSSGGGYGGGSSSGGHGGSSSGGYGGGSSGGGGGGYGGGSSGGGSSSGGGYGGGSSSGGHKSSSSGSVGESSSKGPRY

Target: Peroxisome proliferator-activated receptor-gamma (PPARγ) (human (endogenous in SW480)) (UniProt P37231)
Experiment: affinity purification with mass spectrometry; IP with PPARγ Ab or IgG (bead control) from cytosolic lysates of SW480 cells in detergent-free hypotonic lysis buffer (20 mM Tris-HCl pH 7.4, 2 mM EGTA, 2 mM MgCl2, protease inhibitors, 5 mM Na3VO4, 1 mM DTT); SDS-PAGE, silver staining, bands cut and sequenced by MS

**Q.** For “cytoplasmic IQ domain-containing protein G / dynein regulatory complex subunit 9 (from UniProt Q9H5C8)”, which binding is on record?
**A.** Its binding is “binds”.

**Q.** “keratin type I cytoskeletal 10 (from UniProt P13645 1-584)” was tested. Which binding did it give?
**A.** Its binding is “binds”.
